The text below walks through data of the supplement of paper PMC12823440, “Inhibitors supercharge kinase turnover through native proteolytic circuits” (Nature, 2025).

Chains of the proteins cited; added tags and fusions are not shown. Lines headed by an entry give the natural chain unless they say otherwise; changes in a name come on top.
UniProt Q6PHR2: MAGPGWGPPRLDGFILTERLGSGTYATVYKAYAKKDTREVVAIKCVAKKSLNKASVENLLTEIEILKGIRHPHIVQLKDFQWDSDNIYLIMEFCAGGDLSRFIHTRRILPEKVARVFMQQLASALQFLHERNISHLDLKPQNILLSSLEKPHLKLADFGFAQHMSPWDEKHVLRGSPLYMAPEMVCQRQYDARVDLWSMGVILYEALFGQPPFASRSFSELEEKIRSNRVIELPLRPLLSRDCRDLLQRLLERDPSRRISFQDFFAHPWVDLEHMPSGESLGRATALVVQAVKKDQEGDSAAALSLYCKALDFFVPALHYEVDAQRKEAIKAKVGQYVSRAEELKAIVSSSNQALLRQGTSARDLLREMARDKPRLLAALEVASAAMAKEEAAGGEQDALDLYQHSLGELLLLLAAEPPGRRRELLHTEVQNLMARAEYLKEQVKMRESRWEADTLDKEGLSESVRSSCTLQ

SMILES strings stand for the structures. Counter-ions that a name gives are not always drawn. The list shows a part of the results. Hit calls seldom repeat between salt and free forms of one compound.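 In K562 cells expressing nanoluciferase-fused kinases, luminescence was recorded at 4 h intervals between 2 and 18 h, normalized as percent of control with DMSO at 100% and a positive control at 0%. A significant (2 sigma) signal drop marks a time point as decreased. The authors' rule for a hit is not shown and takes in more than the number of time points.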

This assay deals with ULK3 (UniProt Q6PHR2). The assay is described as follows: number of time points (of 5) at which kinase-Nluc abundance scored as decreased, DMSO-normalised (count); higher = more persistent destabilization. As to conditions: K562; 2-18 h.
With `C[C@@H]1COCCN1c1nc(-c2cnc(N)cc2C(F)F)nc(N2[C@H](C)COC[C@@H]2C)n1` (2.5 µM), the “number of time points” value was determined as 0. The figure for `O=C(O)c1cc(=O)c2c(OCC(O)COc3cccc4oc(C(=O)O)cc(=O)c34)cccc2o1` [Cromolyn (sodium)] (10 µM) is 0.

`CCc1ccc(OCC(=O)Nc2ccc(F)c([N+](=O)[O-])c2)cc1` (10 µM): the “number of time points” value is 0. As to `CC(C)S(=O)(=O)c1ccc2nccc(Nc3ccc4scnc4c3)c2c1` (10 µM), the “number of time points” value worked out at 0.

With `CN1CC[C@@H](c2c(O)cc(O)c3c(=O)cc(-c4ccc(C(F)(F)F)cc4Cl)oc23)[C@@H]1CO` [Voruciclib (hydrochloride)] (10 µM), the “number of time points” value is 0. The value for `CC(C)=CC(=O)O[C@H]1Cc2cc3ccc(=O)oc3cc2OC1(C)C` [Decursin] (10 µM) was 0; that for `CC(C)C[C@@H](C(=O)Nc1ccn(C[C@@H](O)CO)n1)N1CC(Oc2ccccc2Cl)=CC1=O` [Dorzagliatin] (10 µM) was 0.

Regarding `CC(C)N1CCN(c2ccc(Nc3ncc4cc5n(c4n3)C3(CCCCC3)CNC5=O)nc2)CC1` [Lerociclib (dihydrochloride)] (2 µM), the “number of time points” value came to 0. The figure for `CCCCCCCCCCCCCCCCOP(=O)([O-])OCC[N+](C)(C)C` [Miltefosine] (10 µM) is 0; for `COCCNc1cc(NC(=O)N2CCCc3cc(CN4CCN(C)CC4=O)c(C=O)nc32)ncc1C#N` [Roblitinib] (10 µM) it is 0; for `Cc1ccc(NC(=O)c2ccc(CN(CCN(C)C)C(=O)c3cccnc3)cc2)cc1Nc1nccc(-c2cccnc2)n1` [PDGFRα kinase inhibitor 1] (10 µM) it is 0. As to `c1ccc(-c2nc(=NCCN3CCOCC3)sn2-c2ccccc2)cc1` [VP3.15 (dihydrobromide)] (10 µM), the “number of time points” value came out at 0. The figure for `O=C1NC(=Nc2c(Cl)cccc2Cl)S/C1=C\c1ccc2nccnc2c1` (2.5 µM) is 2; for `Cc1cc(-c2ccnc(Nc3cnn(C)c3)n2)ccc1CNC(=O)N1CC(OC(C)C)C1` (10 µM) it is 0; for `CN(C)S(=O)(=O)c1ccc2c(c1)/C(=C/c1cc3c([nH]1)CCCC3)C(=O)N2` (2.5 µM) it is 0.

As to `Cc1cnc(NC2CCOCC2)nc1-n1cnc(C(=O)N[C@H](CN)c2cc(F)cc(Cl)c2)c1` (10 µM), the “number of time points” value stood at 0. As for `N#CC(c1ccnc(OCc2ccc(CN3CCOCC3)cc2)n1)c1nc2ccccc2s1` (stereo not drawn) [Bentamapimod] (2.5 µM), the “number of time points” value was determined as 0. The figure for `Cc1c(-c2ccc(C(N)=O)c3[nH]c4cc(C(C)(C)O)ccc4c23)cccc1-n1cnc2ccccc2c1=O` (2.5 µM) is 0; for `CN(C)c1nc2c(Br)c(Br)c(Br)c(Br)c2[nH]1` (10 µM) it is 0. The figure for `Nc1ncnc2c1c(-c1ccc(Oc3ccccc3)cc1)nn2C1CCN(CCOCCOCCOc2ccc3c(c2)CN(C2CCC(=O)NC2=O)C3=O)CC1` (stereo not drawn) (2.5 µM) is 0; for `O=[N+]([O-])c1ccc(Nc2nc(N3CCOCC3)nc(N3CCOCC3)n2)cc1` (10 µM) it is 0.

As for `C[C@H](Nc1ncnc2[nH]cnc12)c1cc2ccc(F)cc2nc1-c1ccccn1` (10 µM), the “number of time points” value was determined as 0. As to `CCc1cccc(CC)c1NC(=O)N1Cc2[nH]nc(NC(=O)c3ccc(N4CCN(C)CC4)cc3)c2C1` (2.5 µM), the “number of time points” value is 3. The value for `CCc1cncnc1N1CCN(Cc2nc3ccc(C(F)(F)F)cc3[nH]2)CC1` (10 µM) was 0; that for `COc1cc(-c2cn[nH]c2)ccc1C(=O)Nc1ccc2c(c1)CCNCC2` (10 µM) was 0.

As for `Cn1cc2cc(C(F)(F)c3nnc4ccc(-c5cnn(C6CC6)c5)nn34)c(F)cc2n1` [Bozitinib] (10 µM), the “number of time points” value was found to be 0.

Turning to `O=Nc1c2[nH]c3ccccc3nc-2c2ccccc12` [IQ-1S (free acid)] (2.5 µM), the “number of time points” value came to 0. The value for `CCN(CC)c1cc2oc(=O)c(-c3nc4ccccc4o3)cc2cc1C` (2.5 µM) was 0; that for `COc1cc(N2CCOCC2)ccc1NC(=O)c1csc(-c2cccnc2)n1` [IRAK inhibitor 6] (10 µM) was 0. The figure for `CNc1nc(Nc2cn(C(C)(C)C#N)nc2C)ncc1C(F)(F)F` (10 µM) is 0; for `COc1nn(C)cc1Nc1nccc(-c2c[nH]c3c(NC(=O)[C@@H](C)N4CCN(C)CC4)cccc23)n1` (10 µM) it is 0; for `N#Cc1ccnc(Nc2cc(C3CCN(C4COC4)CC3)cc(N3CCC(F)(F)C3)n2)c1` (2.5 µM) it is 0. The value for `Cc1cccc2c3c(ccc12)C(=O)C1=C(OCC1C)C3=O` (stereo not drawn) [Dihydroisotanshinone I] (2.5 µM) was 0.
